Source: doi:10.1101/2020.01.12.903369
Results are given in words; binding and its absence hold for the method and conditions named. In cells and extracts the contact can be indirect. Some entries that bind do so weakly or less than the wild type.

What was measured:
Assay in all cases: co-IP
Details in all cases: remark: other sources report otherwise
HA-tagged MCL1, Q07820 = molecular target: HA-tagged MCL1, Q07820
[1] = molecular target: MCL1 (human (endogenous in LNCaP)), Q07820
[2] = molecular target: MCL1 (human (endogenous in LNCaP)), Q07820; remark: listed apart in the source

Measured: binding

B1: NOXA, Q13794 1-54 (protein)
chain: MPGKKARKNAQPSPARAPAELEVECATQLRRFGDKLNFRQKLLNLISKLFCSGT
binds: HA-tagged MCL1, Q07820 | [1] | [2]
